The list shows a part of the results.

Chains of the proteins cited; added tags and fusions are not shown. Lines headed by an entry give the natural chain unless they say otherwise; changes in a name come on top.
UniProt O75575: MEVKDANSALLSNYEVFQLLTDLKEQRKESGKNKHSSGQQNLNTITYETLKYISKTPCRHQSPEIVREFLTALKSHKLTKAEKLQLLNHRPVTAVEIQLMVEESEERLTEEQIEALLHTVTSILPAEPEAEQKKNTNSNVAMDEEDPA
UniProt Q92793, whole entry, looked up: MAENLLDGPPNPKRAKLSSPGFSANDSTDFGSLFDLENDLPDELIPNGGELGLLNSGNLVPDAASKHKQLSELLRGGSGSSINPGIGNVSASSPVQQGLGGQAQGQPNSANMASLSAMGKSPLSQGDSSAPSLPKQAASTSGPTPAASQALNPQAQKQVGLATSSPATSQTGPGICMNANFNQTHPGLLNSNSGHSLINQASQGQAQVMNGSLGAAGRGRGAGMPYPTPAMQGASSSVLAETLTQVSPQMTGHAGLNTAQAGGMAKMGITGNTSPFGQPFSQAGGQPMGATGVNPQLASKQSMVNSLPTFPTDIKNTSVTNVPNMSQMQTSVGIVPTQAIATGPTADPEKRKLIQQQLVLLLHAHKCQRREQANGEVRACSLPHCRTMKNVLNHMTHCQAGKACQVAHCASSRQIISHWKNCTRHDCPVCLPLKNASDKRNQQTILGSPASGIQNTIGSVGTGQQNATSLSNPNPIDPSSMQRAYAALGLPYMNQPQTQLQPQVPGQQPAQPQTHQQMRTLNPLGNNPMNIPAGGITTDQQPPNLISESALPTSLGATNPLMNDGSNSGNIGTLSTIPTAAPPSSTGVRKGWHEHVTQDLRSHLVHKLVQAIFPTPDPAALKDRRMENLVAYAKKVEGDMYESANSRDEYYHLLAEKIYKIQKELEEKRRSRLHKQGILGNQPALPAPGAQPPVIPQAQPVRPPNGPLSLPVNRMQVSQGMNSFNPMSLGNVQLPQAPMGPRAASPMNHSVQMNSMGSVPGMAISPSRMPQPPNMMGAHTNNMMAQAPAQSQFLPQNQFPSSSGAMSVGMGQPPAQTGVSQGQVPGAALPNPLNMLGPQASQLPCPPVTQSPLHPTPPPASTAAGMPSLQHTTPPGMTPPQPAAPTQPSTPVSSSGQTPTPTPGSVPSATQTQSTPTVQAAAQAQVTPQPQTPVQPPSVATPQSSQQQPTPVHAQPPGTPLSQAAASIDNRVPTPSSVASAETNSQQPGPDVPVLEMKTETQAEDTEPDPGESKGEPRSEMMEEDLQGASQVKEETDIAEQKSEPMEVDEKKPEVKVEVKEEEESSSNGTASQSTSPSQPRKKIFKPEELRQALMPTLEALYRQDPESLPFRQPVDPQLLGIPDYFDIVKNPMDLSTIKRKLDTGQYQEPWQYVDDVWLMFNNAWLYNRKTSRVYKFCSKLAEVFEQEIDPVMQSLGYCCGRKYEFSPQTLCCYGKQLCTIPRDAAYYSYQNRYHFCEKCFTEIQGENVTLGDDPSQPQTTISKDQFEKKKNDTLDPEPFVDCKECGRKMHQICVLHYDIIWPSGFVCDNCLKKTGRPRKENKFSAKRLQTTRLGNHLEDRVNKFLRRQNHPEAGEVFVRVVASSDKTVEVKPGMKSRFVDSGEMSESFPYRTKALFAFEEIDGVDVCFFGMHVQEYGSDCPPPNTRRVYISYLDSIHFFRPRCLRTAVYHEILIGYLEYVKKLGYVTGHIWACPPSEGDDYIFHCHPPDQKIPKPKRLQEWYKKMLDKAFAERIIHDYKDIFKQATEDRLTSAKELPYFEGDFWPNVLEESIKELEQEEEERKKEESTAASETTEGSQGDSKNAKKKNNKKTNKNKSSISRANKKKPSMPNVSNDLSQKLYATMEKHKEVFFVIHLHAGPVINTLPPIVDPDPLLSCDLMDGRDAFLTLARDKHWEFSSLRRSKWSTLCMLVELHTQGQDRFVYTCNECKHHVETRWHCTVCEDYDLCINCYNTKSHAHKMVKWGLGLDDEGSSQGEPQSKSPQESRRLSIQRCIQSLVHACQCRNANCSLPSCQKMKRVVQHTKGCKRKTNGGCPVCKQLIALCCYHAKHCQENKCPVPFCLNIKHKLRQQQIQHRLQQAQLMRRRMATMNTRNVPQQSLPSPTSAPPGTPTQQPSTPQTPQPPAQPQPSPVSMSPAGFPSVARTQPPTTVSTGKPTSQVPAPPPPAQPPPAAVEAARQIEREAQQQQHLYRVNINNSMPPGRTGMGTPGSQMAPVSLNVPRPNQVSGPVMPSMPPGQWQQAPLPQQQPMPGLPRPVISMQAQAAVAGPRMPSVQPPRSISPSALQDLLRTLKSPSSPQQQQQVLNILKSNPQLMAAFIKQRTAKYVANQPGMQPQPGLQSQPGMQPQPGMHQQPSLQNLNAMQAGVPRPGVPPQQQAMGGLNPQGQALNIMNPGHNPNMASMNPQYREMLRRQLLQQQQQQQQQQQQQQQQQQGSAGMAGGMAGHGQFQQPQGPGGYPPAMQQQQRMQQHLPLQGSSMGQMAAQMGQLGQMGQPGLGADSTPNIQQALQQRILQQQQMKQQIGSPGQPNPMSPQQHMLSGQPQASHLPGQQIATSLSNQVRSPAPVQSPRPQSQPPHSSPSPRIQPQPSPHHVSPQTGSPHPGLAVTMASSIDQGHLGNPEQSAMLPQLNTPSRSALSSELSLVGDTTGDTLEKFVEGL
UniProt Q9H3G5: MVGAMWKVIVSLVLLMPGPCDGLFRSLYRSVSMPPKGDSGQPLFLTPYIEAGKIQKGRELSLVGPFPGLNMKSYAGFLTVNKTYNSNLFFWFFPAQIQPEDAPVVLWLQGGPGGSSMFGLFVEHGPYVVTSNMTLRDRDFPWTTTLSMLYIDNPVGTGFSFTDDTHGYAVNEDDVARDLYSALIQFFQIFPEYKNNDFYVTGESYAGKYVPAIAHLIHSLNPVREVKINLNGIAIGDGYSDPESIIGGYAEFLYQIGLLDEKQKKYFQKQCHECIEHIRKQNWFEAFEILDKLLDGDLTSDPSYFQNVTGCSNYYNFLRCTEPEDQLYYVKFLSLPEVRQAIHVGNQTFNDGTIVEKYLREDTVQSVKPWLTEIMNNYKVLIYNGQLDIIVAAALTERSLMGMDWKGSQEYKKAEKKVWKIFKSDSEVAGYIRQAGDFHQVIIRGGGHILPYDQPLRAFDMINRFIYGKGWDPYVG
UniProt Q9NQ92: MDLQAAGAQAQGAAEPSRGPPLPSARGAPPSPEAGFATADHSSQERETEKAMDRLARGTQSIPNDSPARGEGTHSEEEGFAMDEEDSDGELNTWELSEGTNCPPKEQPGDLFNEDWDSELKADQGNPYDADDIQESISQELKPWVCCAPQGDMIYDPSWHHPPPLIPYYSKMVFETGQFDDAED
UniProt Q9Y678: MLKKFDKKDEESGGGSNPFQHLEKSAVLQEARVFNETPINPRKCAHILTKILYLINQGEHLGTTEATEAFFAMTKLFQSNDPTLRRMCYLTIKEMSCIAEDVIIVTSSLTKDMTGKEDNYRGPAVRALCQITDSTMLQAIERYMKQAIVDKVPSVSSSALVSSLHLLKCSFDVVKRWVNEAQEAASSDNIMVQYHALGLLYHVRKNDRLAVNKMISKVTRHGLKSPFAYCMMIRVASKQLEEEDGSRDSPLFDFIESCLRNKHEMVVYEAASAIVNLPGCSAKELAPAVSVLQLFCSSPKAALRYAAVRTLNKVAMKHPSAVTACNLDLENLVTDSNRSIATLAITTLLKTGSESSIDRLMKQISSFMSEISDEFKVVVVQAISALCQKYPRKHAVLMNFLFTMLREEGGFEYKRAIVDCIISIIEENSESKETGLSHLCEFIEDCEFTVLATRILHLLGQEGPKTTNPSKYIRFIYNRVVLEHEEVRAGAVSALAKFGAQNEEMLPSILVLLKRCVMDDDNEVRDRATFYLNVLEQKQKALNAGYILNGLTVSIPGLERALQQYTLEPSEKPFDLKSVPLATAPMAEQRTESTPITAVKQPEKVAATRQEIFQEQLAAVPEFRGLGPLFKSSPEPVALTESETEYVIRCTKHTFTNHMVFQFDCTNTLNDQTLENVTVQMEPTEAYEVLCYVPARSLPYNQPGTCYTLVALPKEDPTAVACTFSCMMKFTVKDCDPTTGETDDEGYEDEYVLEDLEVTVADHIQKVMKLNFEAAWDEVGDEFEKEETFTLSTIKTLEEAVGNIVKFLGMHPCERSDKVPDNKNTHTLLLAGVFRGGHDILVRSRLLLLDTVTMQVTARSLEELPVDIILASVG
UniProt Q99829: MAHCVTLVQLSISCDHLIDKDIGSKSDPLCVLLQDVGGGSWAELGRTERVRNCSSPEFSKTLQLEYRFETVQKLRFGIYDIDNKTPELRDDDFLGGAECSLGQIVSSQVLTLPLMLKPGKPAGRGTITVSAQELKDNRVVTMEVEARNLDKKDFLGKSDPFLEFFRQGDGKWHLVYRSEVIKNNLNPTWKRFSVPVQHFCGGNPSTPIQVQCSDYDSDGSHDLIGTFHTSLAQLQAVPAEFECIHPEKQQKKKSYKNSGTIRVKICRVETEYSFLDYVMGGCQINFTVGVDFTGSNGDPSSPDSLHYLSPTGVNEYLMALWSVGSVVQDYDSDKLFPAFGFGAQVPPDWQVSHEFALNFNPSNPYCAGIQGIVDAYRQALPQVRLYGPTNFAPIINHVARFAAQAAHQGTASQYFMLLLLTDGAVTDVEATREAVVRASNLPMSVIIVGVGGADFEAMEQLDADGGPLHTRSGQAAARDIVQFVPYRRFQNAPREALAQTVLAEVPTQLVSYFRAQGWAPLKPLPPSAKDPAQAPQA
UniProt P31146: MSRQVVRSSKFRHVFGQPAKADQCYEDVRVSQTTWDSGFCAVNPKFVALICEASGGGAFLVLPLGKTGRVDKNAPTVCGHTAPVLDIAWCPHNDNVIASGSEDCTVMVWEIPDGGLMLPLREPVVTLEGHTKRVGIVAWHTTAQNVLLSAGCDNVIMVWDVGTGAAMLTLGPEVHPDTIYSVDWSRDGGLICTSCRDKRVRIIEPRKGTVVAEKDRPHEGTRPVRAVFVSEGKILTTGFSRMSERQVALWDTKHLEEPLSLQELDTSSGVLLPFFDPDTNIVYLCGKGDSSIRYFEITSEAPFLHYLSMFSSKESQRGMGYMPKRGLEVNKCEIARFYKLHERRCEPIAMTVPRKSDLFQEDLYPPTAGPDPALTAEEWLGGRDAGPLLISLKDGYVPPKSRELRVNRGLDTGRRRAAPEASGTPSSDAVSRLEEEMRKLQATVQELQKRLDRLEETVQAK
UniProt Q9BSW2: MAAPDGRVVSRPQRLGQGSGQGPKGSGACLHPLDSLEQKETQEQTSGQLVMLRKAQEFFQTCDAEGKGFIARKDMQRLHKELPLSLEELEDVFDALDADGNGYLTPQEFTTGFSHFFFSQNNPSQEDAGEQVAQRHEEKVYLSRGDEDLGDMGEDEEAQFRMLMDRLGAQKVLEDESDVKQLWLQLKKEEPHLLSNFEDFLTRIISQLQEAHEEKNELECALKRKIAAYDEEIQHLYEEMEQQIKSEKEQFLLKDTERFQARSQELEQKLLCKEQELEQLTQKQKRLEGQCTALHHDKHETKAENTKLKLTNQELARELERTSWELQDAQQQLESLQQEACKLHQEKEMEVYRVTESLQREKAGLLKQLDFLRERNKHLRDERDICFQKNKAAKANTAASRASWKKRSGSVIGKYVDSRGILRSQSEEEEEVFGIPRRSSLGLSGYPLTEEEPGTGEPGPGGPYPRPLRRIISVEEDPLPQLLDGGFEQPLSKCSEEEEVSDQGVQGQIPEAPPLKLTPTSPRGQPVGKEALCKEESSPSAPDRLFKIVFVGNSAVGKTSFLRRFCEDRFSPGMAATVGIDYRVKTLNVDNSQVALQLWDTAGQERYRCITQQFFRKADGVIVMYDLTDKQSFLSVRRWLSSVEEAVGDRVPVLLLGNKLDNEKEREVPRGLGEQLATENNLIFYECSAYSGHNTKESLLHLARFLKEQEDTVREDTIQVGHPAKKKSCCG
UniProt Q86VU5: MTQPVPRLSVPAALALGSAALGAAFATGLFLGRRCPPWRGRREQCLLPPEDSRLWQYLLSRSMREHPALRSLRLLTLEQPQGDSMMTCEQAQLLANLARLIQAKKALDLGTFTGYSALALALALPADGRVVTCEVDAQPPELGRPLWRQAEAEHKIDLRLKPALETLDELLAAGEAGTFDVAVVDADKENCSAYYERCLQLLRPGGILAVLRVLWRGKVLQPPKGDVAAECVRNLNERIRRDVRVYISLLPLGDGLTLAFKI
UniProt A4D126: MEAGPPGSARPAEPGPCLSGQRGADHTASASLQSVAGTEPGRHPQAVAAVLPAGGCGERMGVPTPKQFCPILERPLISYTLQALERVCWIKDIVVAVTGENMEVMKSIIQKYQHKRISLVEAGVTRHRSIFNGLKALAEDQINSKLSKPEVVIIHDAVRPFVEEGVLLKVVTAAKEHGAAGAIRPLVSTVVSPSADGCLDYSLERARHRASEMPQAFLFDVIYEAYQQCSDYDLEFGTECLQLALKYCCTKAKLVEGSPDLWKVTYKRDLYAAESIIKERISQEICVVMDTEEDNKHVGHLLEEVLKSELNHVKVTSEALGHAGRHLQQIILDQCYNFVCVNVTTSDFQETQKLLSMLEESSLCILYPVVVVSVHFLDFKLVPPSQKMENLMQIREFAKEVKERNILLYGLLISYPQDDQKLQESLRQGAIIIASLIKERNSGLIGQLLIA

Compound in this assay: c1cn2cc(-c3ccc4cn[nH]c4c3)nc(Nc3ccc(N4CCOCC4)cc3)c2n1 [entospletinib]
Nature of the assay: log2 fold change, soluble protein after heating vs DMSO (PISA); higher = thermal stabilisation; K562 cells, 10 uM, 30 min; active = over 0.2 and 3.5 SD of the protein, either way, in both replicates (recomputed). An outline of the steps: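 K562 cells at 2×10^6 cells/mL were treated with 10 μM compound for 30 min. Aliquots were heated for 3 min across 48°C-58°C, pooled, and extracted in PBS with 0.5% NP-40 at 4°C; soluble protein was the supernatant after 21,000xg for 90 min. Soluble protein was quantified by TMTpro 16plex LC-MS/MS with channel sums equalised, and reported as log2 fold change in thermal stability against DMSO controls, with values from duplicates.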
Turning to CRCP (UniProt O75575), the log2 fold change was inactive: 0.189.

COQ10B (UniProt Q9H8M1): the log2 fold change is inactive: 0.138.

Take COPS5 (UniProt Q92905): the log2 fold change was inactive: -0.042.

In the case of CREBBP (UniProt Q92793), the log2 fold change was inactive: -0.03.

COPG2 (UniProt Q9UBF2): the log2 fold change is inactive: -0.041.

As to CPVL (UniProt Q9H3G5), the log2 fold change was inactive: -0.16.

Consider COPRS (UniProt Q9NQ92), for which the log2 fold change is inactive: 0.043.

For COQ8A (UniProt Q8NI60), the log2 fold change is inactive: 0.103.

Take CREB1 (UniProt P16220): the log2 fold change is inactive: 0.017.

In the case of COPG1 (UniProt Q9Y678), the log2 fold change was inactive: -0.01.

For the target CPNE1 (UniProt Q99829), the log2 fold change was inactive: 0.001.

Take COMMD9 (UniProt Q9P000): the log2 fold change is inactive: 0.015.

As for CORO1A (UniProt P31146), the log2 fold change is inactive: 0.039.

Turning to CRACR2A isoform 2 (UniProt Q9BSW2), the log2 fold change was inactive: 0.025.

CPPED1 (UniProt Q9BRF8): the log2 fold change was inactive: -0.028.

Regarding COMMD8 (UniProt Q9NX08), the log2 fold change is inactive: 0.042.

Consider COMTD1 (UniProt Q86VU5), for which the log2 fold change was inactive: 0.045.

As to CRPPA (UniProt A4D126), the log2 fold change was inactive: 0.031.

CSNK1G2 (UniProt P78368): the log2 fold change is inactive: 0.021.

As for CROCC (UniProt Q5TZA2), the log2 fold change is inactive: -0.005.

For CORO7 isoform 3 (UniProt P57737), the log2 fold change was inactive: -0.009.

On to COQ2 (UniProt Q96H96), for which the log2 fold change was inactive: 0.047.

COQ5 (UniProt Q5HYK3): the log2 fold change is inactive: 0.074.

The record behind these values is the supplement of paper PMC10849652.
